{"sequences": {"note": "Amino acid sequences for entries named in this document (tags omitted). A change or cut given only in a name is not applied to a line headed by its entry.", "UniProt Q64374": "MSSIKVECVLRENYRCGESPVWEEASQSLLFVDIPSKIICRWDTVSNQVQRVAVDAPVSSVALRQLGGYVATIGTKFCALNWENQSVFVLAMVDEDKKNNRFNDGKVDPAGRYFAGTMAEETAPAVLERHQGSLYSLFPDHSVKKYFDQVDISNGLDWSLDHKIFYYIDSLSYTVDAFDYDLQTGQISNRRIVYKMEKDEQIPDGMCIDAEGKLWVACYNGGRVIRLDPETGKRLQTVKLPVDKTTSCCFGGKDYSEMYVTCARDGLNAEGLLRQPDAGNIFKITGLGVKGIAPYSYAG", "UniProt Q640Q5": "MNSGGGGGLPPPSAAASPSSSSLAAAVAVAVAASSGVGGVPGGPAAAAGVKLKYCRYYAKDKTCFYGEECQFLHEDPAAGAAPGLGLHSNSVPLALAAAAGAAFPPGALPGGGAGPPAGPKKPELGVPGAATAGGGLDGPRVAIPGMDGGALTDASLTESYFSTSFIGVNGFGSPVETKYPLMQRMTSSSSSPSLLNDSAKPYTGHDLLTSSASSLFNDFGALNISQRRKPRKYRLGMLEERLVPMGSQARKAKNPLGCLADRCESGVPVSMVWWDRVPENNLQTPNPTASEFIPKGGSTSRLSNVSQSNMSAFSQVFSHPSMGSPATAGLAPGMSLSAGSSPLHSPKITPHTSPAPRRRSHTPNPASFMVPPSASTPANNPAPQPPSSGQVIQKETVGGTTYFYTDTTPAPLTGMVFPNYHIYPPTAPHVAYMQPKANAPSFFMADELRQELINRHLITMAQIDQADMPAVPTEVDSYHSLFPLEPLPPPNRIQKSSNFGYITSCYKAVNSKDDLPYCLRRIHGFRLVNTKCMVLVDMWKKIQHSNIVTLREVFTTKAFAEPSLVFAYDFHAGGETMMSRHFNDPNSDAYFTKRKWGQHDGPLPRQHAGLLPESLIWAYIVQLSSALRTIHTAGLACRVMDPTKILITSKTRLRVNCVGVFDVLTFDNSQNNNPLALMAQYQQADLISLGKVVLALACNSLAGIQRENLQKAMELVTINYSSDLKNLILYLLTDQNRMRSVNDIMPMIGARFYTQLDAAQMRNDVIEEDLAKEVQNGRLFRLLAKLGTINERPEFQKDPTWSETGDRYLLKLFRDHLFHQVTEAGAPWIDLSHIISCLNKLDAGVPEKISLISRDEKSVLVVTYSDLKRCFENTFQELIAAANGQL", "UniProt Q64282": "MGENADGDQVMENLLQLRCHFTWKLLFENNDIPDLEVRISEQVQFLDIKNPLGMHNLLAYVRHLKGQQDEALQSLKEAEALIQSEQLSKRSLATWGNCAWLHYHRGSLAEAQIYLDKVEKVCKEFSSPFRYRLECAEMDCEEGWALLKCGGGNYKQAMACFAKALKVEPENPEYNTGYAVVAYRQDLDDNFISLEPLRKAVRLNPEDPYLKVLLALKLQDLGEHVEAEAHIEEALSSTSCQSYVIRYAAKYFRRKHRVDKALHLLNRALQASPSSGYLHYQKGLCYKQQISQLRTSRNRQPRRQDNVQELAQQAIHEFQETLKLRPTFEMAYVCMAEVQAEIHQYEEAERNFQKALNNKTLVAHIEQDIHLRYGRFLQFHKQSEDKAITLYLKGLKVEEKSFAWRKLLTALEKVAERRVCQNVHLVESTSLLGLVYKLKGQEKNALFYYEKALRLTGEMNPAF", "UniProt Q64FW2": "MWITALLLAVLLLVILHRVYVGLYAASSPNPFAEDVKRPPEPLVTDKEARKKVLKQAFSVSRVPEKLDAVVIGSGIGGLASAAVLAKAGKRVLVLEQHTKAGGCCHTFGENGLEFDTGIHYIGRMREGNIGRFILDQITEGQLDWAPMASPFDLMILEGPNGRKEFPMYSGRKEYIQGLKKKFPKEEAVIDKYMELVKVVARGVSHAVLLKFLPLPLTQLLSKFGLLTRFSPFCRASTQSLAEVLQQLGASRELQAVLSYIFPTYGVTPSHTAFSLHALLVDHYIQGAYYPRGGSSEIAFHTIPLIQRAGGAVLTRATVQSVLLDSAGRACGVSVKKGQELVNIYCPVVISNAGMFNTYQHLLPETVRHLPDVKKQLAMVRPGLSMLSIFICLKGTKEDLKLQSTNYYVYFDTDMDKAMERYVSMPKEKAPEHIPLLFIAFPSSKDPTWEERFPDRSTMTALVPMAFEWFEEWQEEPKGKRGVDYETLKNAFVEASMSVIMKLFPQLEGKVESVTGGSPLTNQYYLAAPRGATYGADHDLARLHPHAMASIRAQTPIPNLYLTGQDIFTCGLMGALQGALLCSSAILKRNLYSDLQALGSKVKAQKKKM", "UniProt Q62318": "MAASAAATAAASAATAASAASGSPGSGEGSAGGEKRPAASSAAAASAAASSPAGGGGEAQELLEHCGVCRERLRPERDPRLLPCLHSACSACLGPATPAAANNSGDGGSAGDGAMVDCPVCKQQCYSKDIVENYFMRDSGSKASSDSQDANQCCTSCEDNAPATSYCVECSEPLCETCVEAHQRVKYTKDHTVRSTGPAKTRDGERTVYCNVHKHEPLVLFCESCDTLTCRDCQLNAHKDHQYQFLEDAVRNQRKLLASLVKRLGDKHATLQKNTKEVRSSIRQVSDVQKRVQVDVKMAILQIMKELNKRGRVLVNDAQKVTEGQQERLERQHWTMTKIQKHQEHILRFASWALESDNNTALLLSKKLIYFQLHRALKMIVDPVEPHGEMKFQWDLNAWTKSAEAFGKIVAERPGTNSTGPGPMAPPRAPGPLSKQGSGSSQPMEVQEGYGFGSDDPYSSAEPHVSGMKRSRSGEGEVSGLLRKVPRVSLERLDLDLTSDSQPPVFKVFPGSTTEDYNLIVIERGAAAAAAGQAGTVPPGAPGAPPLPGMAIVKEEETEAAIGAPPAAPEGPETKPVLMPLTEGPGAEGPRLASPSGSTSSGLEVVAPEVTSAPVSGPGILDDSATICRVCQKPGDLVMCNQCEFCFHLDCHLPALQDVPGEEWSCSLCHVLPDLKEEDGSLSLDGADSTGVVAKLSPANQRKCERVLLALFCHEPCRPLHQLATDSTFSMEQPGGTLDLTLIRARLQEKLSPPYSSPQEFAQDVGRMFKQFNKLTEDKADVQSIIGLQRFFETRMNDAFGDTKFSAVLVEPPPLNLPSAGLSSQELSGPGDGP", "UniProt Q61490": "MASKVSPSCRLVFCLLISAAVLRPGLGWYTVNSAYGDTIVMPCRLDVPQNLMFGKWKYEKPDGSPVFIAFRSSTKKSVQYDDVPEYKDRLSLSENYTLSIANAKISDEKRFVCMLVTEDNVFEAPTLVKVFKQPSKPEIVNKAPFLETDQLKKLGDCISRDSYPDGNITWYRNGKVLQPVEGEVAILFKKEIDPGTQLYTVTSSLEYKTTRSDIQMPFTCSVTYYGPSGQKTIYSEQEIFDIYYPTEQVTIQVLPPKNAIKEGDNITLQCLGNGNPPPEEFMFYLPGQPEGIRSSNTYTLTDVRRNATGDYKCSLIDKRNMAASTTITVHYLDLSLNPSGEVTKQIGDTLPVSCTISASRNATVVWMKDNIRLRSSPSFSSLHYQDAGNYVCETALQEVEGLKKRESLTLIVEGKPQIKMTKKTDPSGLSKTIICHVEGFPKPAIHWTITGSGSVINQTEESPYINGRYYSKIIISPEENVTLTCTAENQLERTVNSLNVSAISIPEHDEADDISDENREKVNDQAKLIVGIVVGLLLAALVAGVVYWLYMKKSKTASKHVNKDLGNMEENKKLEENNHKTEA", "UniProt Q69Z66": "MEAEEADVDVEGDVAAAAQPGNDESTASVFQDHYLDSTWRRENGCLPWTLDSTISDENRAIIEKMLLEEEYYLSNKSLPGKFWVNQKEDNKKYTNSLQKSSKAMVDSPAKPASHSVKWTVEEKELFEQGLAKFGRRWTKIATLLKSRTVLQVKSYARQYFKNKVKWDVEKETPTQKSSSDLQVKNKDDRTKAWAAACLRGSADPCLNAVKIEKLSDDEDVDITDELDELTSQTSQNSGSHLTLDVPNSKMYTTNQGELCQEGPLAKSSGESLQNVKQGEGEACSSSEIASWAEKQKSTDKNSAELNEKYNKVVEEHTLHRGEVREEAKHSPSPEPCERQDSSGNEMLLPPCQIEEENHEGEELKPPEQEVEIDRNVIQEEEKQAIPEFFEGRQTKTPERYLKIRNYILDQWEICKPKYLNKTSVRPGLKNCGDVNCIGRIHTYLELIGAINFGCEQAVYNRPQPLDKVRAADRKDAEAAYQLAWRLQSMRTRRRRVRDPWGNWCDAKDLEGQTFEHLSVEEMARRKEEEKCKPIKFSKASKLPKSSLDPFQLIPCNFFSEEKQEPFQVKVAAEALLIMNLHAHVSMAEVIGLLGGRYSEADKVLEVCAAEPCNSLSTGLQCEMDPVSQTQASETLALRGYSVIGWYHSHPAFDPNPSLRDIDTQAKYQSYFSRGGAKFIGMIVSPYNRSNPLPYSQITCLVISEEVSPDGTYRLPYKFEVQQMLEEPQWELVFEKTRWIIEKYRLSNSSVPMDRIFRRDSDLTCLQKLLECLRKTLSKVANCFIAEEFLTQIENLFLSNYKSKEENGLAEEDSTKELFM", "UniProt Q69Z69": "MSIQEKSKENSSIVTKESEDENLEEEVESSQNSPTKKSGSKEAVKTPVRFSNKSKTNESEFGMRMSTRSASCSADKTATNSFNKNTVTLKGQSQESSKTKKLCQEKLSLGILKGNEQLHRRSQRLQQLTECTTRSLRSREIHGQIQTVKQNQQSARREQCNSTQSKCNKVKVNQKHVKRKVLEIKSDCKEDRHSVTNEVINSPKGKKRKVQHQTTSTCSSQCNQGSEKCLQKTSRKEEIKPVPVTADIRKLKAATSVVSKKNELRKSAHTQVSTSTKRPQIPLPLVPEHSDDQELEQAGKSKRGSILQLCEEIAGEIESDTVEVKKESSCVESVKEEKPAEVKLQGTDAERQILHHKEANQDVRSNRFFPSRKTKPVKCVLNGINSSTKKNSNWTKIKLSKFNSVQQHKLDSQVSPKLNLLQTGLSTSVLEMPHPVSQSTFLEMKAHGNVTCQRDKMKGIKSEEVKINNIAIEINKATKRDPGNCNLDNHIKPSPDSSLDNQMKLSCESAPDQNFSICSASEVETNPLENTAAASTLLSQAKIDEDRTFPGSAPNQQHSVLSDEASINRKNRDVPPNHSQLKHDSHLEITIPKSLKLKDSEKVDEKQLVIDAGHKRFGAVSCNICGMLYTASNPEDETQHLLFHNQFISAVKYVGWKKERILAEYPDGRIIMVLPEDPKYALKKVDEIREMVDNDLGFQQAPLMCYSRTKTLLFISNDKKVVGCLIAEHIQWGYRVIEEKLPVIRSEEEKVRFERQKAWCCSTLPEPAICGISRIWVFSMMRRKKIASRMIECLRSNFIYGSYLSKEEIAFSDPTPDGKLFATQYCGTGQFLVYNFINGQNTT", "UniProt Q64700": "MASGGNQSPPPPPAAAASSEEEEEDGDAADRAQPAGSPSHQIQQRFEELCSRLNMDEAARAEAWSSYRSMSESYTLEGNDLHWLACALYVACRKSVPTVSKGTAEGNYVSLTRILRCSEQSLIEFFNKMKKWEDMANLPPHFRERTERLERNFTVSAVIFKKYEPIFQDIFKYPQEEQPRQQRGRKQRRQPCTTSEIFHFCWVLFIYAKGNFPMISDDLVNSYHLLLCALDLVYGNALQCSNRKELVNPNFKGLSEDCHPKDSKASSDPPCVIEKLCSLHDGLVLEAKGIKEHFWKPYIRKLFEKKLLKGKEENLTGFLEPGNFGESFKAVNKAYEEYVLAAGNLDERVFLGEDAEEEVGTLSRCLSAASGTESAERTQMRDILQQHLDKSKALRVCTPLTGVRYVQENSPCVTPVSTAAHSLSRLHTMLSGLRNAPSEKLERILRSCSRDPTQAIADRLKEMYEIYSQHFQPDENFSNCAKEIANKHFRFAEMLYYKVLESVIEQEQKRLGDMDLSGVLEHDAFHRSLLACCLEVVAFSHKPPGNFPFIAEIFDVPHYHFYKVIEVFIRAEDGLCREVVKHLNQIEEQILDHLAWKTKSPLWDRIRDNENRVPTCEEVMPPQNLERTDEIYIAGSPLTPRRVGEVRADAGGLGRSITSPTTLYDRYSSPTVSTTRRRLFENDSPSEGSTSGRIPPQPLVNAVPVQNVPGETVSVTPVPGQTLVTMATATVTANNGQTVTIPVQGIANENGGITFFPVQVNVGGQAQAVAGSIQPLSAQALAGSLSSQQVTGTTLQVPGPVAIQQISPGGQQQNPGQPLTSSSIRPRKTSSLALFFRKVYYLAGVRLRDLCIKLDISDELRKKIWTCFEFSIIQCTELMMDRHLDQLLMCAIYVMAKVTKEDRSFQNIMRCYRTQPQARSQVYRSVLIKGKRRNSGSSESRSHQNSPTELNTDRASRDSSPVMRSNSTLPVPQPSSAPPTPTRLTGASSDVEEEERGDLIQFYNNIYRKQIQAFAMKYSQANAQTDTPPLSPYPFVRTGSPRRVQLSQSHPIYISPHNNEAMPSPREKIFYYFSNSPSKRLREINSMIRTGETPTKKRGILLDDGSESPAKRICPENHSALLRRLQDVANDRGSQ"}, "source": "the supplement of paper PMC12819154", "about": "“High-throughput peptide-centric local stability assay extends protein–ligand identification to membrane proteins, tissues and bacteria” (Nature Structural & Molecular Biology, 2025)", "note": "This is one part of the list. Most values lie at the level of the controls, where differences are scatter."}
{"compound": "CN[C@@H]1C[C@H]2O[C@@](C)([C@@H]1OC)n1c3ccccc3c3c4c(c5c6ccccc6n2c5c31)C(=O)NC4 [staurosporine]", "assay": "log2 fold change of tryptic peptide abundance, ligand vs vehicle (limited proteolysis) (log2 ratio); higher = more trypsin-susceptible (destabilized)", "settings": "ligand concentration: 20 uM; sample: mouse liver crude lysate; replicate design: treated separately"}
{"target": "UniProt Q62084 (peptide sequence: VTVKYDR, peptide start residue: 37)", "log2 fold change": -0.119}
{"target": "UniProt Q64374 (peptide sequence: LWVACYNGGR, peptide start residue: 214)", "log2 fold change": 0.401}
{"target": "UniProt Q64331 (peptide sequence: MSQSIIVSGESGAGKTENTK, peptide start residue: 143)", "log2 fold change": -1.01}
{"target": "UniProt Q62264 (peptide sequence: SICVEVDHGLLPREEWQAK, peptide start residue: 65)", "log2 fold change": -0.174}
{"target": "UniProt Q640Q5 (peptide sequence: CMVLVDMWK, peptide start residue: 533)", "log2 fold change": 0.283}
{"target": "UniProt Q64282 (peptide sequence: SLATWGNCAWLHYHR, peptide start residue: 91)", "log2 fold change": 0.365}
{"target": "UniProt Q68FE2 (peptide sequence: HRADVASALR, peptide start residue: 644)", "log2 fold change": 0.444}
{"target": "UniProt Q64FW2 (peptide sequence: GVSHAVLLK, peptide start residue: 203)", "log2 fold change": 0.523}
{"target": "UniProt Q61418 (peptide sequence: LLGIITKK, peptide start residue: 789)", "log2 fold change": 0.118}
{"target": "UniProt Q62313 (peptide sequence: VDLDKPTSK, peptide start residue: 172)", "log2 fold change": -0.134}
{"target": "UniProt Q62504 (peptide sequence: VDSAPRPIPSWYMK, peptide start residue: 1498)", "log2 fold change": -0.425}
{"target": "UniProt Q61592 (peptide sequence: MFSGTPVIR, peptide start residue: 297)", "log2 fold change": 0.212}
{"target": "UniProt Q62318 (peptide sequence: VLVNDAQK, peptide start residue: 313)", "log2 fold change": -0.171}
{"target": "UniProt Q61490 (peptide sequence: HVNKDLGNMEENK, peptide start residue: 560)", "log2 fold change": 0.666}
{"target": "UniProt Q641K1 (peptide sequence: INTDSTESDTAR, peptide start residue: 28)", "log2 fold change": 0.426}
{"target": "UniProt Q640N2 (peptide sequence: FQVTIFDLGGGKR, peptide start residue: 65)", "log2 fold change": -0.347}
{"target": "UniProt Q64311 (peptide sequence: PLLVDGQR, peptide start residue: 2)", "log2 fold change": 0.092}
{"target": "UniProt Q62179 (peptide sequence: GYQALSDSSPGPR, peptide start residue: 772)", "log2 fold change": -0.147}
{"target": "UniProt Q69Z66 (peptide sequence: AMVDSPAKPASHSVK, peptide start residue: 103)", "log2 fold change": 0.593}
{"target": "UniProt Q61941 (peptide sequence: DGKVIFPAPTPK, peptide start residue: 431)", "log2 fold change": 0.484}
{"target": "UniProt Q69Z36 (peptide sequence: VVGLVVGPK, peptide start residue: 330)", "log2 fold change": -0.0188}
{"target": "UniProt Q62419 (peptide sequence: LDDDFKDMEK, peptide start residue: 29)", "log2 fold change": 0.348}
{"target": "UniProt Q62189 (peptide sequence: TDSDIIAK, peptide start residue: 95)", "log2 fold change": -0.126}
{"target": "UniProt Q69Z69 (peptide sequence: EIHGQIQTVK, peptide start residue: 140)", "log2 fold change": -0.384}
{"target": "UniProt Q62148 (peptide sequence: RMDASER, peptide start residue: 97)", "log2 fold change": 0.183}
{"target": "UniProt Q64700 (peptide sequence: NFTVSAVIFK, peptide start residue: 152)", "log2 fold change": -0.33}
{"target": "UniProt Q62440 (peptide sequence: SPMVGFDPPPHMR, peptide start residue: 416)", "log2 fold change": -0.216}
{"target": "UniProt Q61493 (peptide sequence: KYSNMRK, peptide start residue: 676)", "log2 fold change": 0.0846}
